Experimental data published in publication PMC3720665.
These are yes or no findings as the source states them, for the method shown. In cells and extracts the contact can be indirect. Some entries that bind do so weakly or less than the wild type.

Sequences of proteins named here, by UniProt entry; tags and fusion partners are left off.
UniProt Q9NXR7: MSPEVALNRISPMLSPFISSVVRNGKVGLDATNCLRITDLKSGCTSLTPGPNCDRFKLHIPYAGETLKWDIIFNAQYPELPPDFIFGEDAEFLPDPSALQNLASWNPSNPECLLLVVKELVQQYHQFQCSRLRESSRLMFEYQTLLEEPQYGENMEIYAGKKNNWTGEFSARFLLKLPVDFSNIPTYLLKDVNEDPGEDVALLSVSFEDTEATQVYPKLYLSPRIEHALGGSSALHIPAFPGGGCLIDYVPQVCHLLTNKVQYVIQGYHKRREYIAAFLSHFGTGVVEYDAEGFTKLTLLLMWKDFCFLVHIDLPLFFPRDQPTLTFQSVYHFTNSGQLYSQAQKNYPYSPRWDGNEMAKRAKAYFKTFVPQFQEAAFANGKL
UniProt P07355: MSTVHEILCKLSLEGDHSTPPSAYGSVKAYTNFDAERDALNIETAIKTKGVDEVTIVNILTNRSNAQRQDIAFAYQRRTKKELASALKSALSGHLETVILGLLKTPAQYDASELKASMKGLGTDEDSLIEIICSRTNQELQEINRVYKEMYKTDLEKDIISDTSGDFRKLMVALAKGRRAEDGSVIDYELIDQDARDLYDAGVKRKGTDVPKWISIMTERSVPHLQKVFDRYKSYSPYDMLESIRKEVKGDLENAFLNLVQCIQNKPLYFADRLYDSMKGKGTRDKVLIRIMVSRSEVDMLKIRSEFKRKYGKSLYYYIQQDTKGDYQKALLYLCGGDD

Molecular target: BRE (human (endogenous in HUCPV cells)) (UniProt Q9NXR7)
Assay: co-IP; endogenous BRE immunoprecipitated from HUCPV cell lysates (Ctl-siRNA and BRE-siRNA treated cells) with a monoclonal BRE antibody on Sepharose beads overnight; lysis buffer 50 mM Tris pH 8.0, 150 mM NaCl, 1% NP-40, 0.5% sodium deoxycholate; Western blot for BRE, actin and ANXA2

binding: binds
Substance: annexin A2 (from UniProt P07355 1-339)
